Test results as given in patent US20250304927A1, “PRO-PEPTIDE VARIANTS FOR MODULATING ACTIVITY OF TRANSGLUTAMINASES” (CURIE CO. INC., priority 2022, published 2025).
Not every detail of the peptide structures is certain; ends, links or a residue may be inferred. Where no end group is shown, it is not given here.

Tests used:
Assay type in all cases: biochemical
[1] = biological target: T1, thermostable mature transglutaminase variant (SEQ ID NO: 3) (Streptomyces mobaraensis, UniProt P81453); assay: pH-responsiveness screen: casein/dansylcadaverine assay at pH 6.0 and pH 8.0 in the presence of pro-peptide variants (Method A); settings: casein assay initial rates, pH 6.0 relative to pH 8.0, normalized for expression
T1 construct: made in house; host or cells: E. coli (lysate)

[2] = biological target: T2, mature evolved transglutaminase (SEQ ID NO: 5) (Streptomyces mobaraensis, UniProt P81453, G359A/K167H/K227R/K228R/N358M/Q126S/Q150A/Q200L); assay: casein assay, inhibition by pro-peptide variants (Method B, activated zymogen); settings: relative to wild-type pro-peptide, diluted approximately 20-fold into casein assay solution
T2 construct: hexa-His tag with two amino acid linker (C); made in house; host or cells: E. coli BL21 (DE3)
Text: Method B. The gene coding for a Pro-transglutaminase (i.e., zymogen form of transglutaminase) variant with the wild-type pro-domain (SEQ ID NO: 2) and an evolved mature domain including a C-terminal His tag (SEQ ID NO: 5), and was cloned into a pET vector operatively linked to the T7 promoter. The expression vector also contains the pMB1 origin of replication and a kanamycin resistance gene. The resulting plasmid was transformed first into E. coli DH-10B, using standard methods known in the art. […]
A secondary screen was performed to determine initial rate of transglutaminase in the presence of the pro-peptide variants using transglutaminase-catalyzed labeling of casein with dansylcadaverine (e.g., a commercially available kit such as the Transglutaminase Fluorogenic Activity Assay Kit, T036, Zedira, Germany). Transglutaminase activity was monitored by measuring the fluorescence (excitation wavelength 332 nm; emission wavelength 500 nm) using a BioTek Synergy H1 microplate reader. Transglutaminase-catalyzed covalent coupling (crosslinking) of monodansylcadaverine with N,N-dimethylcasein produces a product that causes a shift in intensity and wavelength of fluorescence of the dansyl group now linked to the casein. The relative transglutaminase activity is shown by increase of fluorescence intensity over time. […]

[3] = biological target: T2, mature evolved transglutaminase (SEQ ID NO: 5); assay: transglutaminase thermostability: activity after being held at 37-50 °C; parameters: key: The symbol, —, represents not determined, neutral, or reduced performance; settings: relative to wild-type pro-peptide; held at 37° C.-50° C. for 30 minutes, diluted 10-fold to 100-fold
Description: The terms “stability” and “thermostability” are used interchangeably to refer to increased residual activity of mature transglutaminase after incubation at elevated temperatures. In some embodiments, a pro-peptide variant increases the stability of a mature transglutaminase compared to the wild type pro-peptide. Measurement of stability is depicted in Example 4.
It is believed that these pro-peptide variants confer thermal stability to mature transglutaminase.

MDNGAGEETKSYAETYRVTADDVANINALNESAPAASSAGPSFRAP [Variant L18V]
Improvement in pH responsiveness of inhibitory peptide relative to WT [1]: >1.2 fold | Inhibition [2]: >2 fold | Thermostability [3]: —
